In patent US9480259B2, “Pyrazolopyrans having herbicidal and pharmaceutical properties” (BASF SE, priority 2012, dated 2016):
Some results were stated once for a whole list of compounds, not compound by compound.

Legend:
Assay type in all cases: in vivo
Conditions in all cases: application rate 1 kg/ha, scale 0 to 100
[1] = tested on: POLCO (Poligonum convolvulus); assay: Greenhouse herbicidal test, post-emergence, POLCO
Description: (§1) The seeds of the test plants were sown separately for each species. For the post-emergence treatment, the test plants were first grown to a height of 2 to 5 cm, depending on the plant habit, and only then treated with the active ingredients which had been suspended or emulsified in water. For this purpose, the test plants were either sown directly and grown in the same containers, or they were first grown separately as seedlings and transplanted into the test containers a few days prior to treatment. Depending on the species, the plants were kept at 10-25° C. or 20-35° C. The test period extended over 8 to 9 days. During this time, the plants were tended, and their response to the individual treatments was evaluated. Evaluation was carried out using a scale from 0 to 100. 100 means no emergence of the plants, or complete destruction of at least the aerial moieties, and 0 means no damage, or normal course of growth. A good herbicidal activity is given at values of at least 70 and a very good herbicidal activity is given at values of at least 85. The plants used in the greenhouse experiments belonged to the following species: [table]

[2] = tested on: CHEAL (Chenopodium album); assay: Greenhouse herbicidal test, post-emergence, CHEAL
Description: as §1

[3] = tested on: AMARE (Amaranthus retroflexus); assay: Greenhouse herbicidal test, post-emergence, AMARE
Description: as §1

[4] = tested on: GALAP (Galium aparine); assay: Greenhouse herbicidal test, post-emergence, GALAP
Description: as §1

Compound | herbicidal activity against POLCO [1] | herbicidal activity against CHEAL [2] | herbicidal activity against AMARE [3] | herbicidal activity against GALAP [4]
Cc1n[nH]c2c1C(c1cc(Cl)cc(Cl)c1)(C(C)C)C(C#N)=C(N)O2 (racemic) [Compound 2.112] | very good (a very good herbicidal activity is given at values of at least 85) | very good (a very good herbicidal activity is given at values of at least 85) | very good (a very good herbicidal activity is given at values of at least 85) | –
Cc1n[nH]c2c1C(c1cc(Cl)cc(C#N)c1)(C1(F)CC1)C(C#N)=C(N)O2 (racemic) [Compound 2.400] | very good (a very good herbicidal activity is given at values of at least 85) | very good (a very good herbicidal activity is given at values of at least 85) | very good (a very good herbicidal activity is given at values of at least 85) | –
Cc1n[nH]c2c1C(c1cc(C#N)cc(C(F)(F)F)c1)(C1(F)CC1)C(C#N)=C(N)O2 (racemic) [Compound 2.404] | very good (a very good herbicidal activity is given at values of at least 85) | very good (a very good herbicidal activity is given at values of at least 85) | very good (a very good herbicidal activity is given at values of at least 85) | –
CC(=O)N(C)c1cc(C#N)cc(C2(C3CCC3)C(C#N)=C(N)Oc3[nH]nc(C)c32)c1 (racemic) [Compound 2.414] | very good (a very good herbicidal activity is given at values of at least 85) | very good (a very good herbicidal activity is given at values of at least 85) | very good (a very good herbicidal activity is given at values of at least 85) | –
Cc1n[nH]c2c1C(c1cc(C#N)cc(OC(F)(F)F)c1)(C1CCC1)C(C#N)=C(N)O2 (racemic) [Compound 2.417] | very good (a very good herbicidal activity is given at values of at least 85) | very good (a very good herbicidal activity is given at values of at least 85) | very good (a very good herbicidal activity is given at values of at least 85) | –
CC(=O)N(C)c1cc(C(F)(F)F)cc(C2(C3(F)CC3)C(C#N)=C(N)Oc3[nH]nc(C)c32)c1 (racemic) [Compound 2.439] | – | very good (a very good herbicidal activity is given at values of at least 85) | very good (a very good herbicidal activity is given at values of at least 85) | very good (a very good herbicidal activity is given at values of at least 85)
CCCC(=O)N(C)c1cc(C#N)cc(C2(C3CCC3)C(C#N)=C(N)Oc3[nH]nc(C)c32)c1 (stereo not drawn) [Compound 2.612] | very good (a very good herbicidal activity is given at values of at least 85) | very good (a very good herbicidal activity is given at values of at least 85) | very good (a very good herbicidal activity is given at values of at least 85) | –
COCCOCC(=O)N(C)c1cc(C#N)cc(C2(C3CCC3)C(C#N)=C(N)Oc3[nH]nc(C)c32)c1 (stereo not drawn) [Compound 2.616] | – | – | – | very good (a very good herbicidal activity is given at values of at least 85)
Cc1n[nH]c2c1C(c1cc(C#N)cc(N(C)S(C)(=O)=O)c1)(C1CCC1)C(C#N)=C(N)O2 (stereo not drawn) [Compound 2.617] | – | – | – | very good (a very good herbicidal activity is given at values of at least 85)
Cc1n[nH]c2c1C(c1cc(C#N)cc(N(C)C(=O)CC#N)c1)(C1CCC1)C(C#N)=C(N)O2 (stereo not drawn) [Compound 2.635] | – | – | – | very good (a very good herbicidal activity is given at values of at least 85)
